Laboratory results reported in PubChem BioAssay AID504444 (National Center for Advancing Translational Sciences (NCATS), 2011).
The campaign covered roughly 360,000 compounds. About 7,500 (2.1%) were called active. Inconclusive means that the source gave no clear call. Such entries were picked first, then a sample of the others. Calls follow the shape of the dose curve; as a rule, active = well fitted inhibition curve with a large enough effect; inconclusive = small, poorly fitted or top-dose-only effect, or effect the other way; inactive = flat fitted curve, though single readings scatter. Potencies beside an inconclusive call are fits to weak or partial responses and may not hold up.

experiment: Nrf2 qHTS screen for inhibitors; conditions: A549 ARE-Fluc reporter, luciferase luminescence, 18-24 h; activity change, negative = inhibition: at 46 µM (top of the series); also: nearly all actives have a fitted effect of over 60% in size
In short: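 A549 ARE_Fluc cells (5000/well, 5% FBS OPTI-MEM) pre-incubated 2 h, then treated with compounds 18-24 h at 37C/5% CO2 in concentration-response. CellTiter-Fluor viability read first; BugLite luciferase luminescence after 15 min at room temperature gives Nrf2 activity.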
% is scaled to controls: 0 for no effect and ±100 for the full control effect; potency is read from the fitted curve at half-maximal effect.

| Structure (SMILES) | Potency | activity change, negative = inhibition |
| --- | --- | --- |
| O=C(COc1ccc(Cl)cc1)Nc1nc(-c2cccs2)cs1 | inconclusive: 29.1 µM [falling, single point] |  |
| CCCCC(=O)Nc1cc2nn(-c3ccc(OC)cc3)nc2cc1C | inconclusive: 5.8 µM [activator, partial curve] |  |
| O=C(NCc1ncc(C(F)(F)F)cc1Cl)Nc1ccccc1 | inconclusive: 16.4 µM [falling, single point] |  |
| O=C1NC(=O)/C(=C\c2cn(CC(=O)N3CCOCC3)c3ccccc23)S1 | inconclusive: 20.6 µM [falling, partial curve, poor fit] |  |
| Cc1nc(-c2ccc(Cl)cc2)sc1C1(C)CC(c2cccc([N+](=O)[O-])c2)=NO1 (configuration not stated) | inconclusive: 20.6 µM [activator, single point] |  |
| O=C(Nc1cccn(Cc2c(Cl)cccc2Cl)c1=O)c1ccc(Cl)cc1Cl | inconclusive: 11.6 µM [falling, partial curve, poor fit] |  |
| COC(=O)c1c(C)n(-c2ccccc2)c2ccc(O)cc12 |  | inactive: 1.04% |
| CCn1ccnc1CN1CCc2c([nH]c3ccccc23)C1CC(C)C (configuration not stated) | inconclusive: 29.1 µM [falling, single point] |  |
| Cc1ccccc1OC(=O)c1cc(-c2ccc3c(c2)OCCO3)on1 |  | inactive: 5.89% |
| COC(=O)c1ccccc1NC(=O)C1CCCC1 |  | inactive: 6.63% |
| CC(=O)Nc1ccc(S(=O)(=O)Oc2ccc(N3C(=O)C4CCCCC4C3=O)cc2)cc1 (configuration not stated) | inconclusive: 32.6 µM [falling, single point] |  |
| Cc1ccc(NC(=O)[C@@H](NC(=O)c2cccc(S(=O)(=O)N3CCOCC3)c2)C(C)C)cc1C | inconclusive: 16.4 µM [falling, partial curve, poor fit] |  |
| COc1cccc(C(=O)N(C)C(C)c2nc3ccccc3s2)c1 (configuration not stated) | inconclusive: 23.1 µM [activator, single point] |  |
| Cc1cc(C(=O)Nc2c(C)cccc2C)n(-c2ccccc2)n1 | inconclusive: 20.6 µM [activator, partial curve, poor fit] |  |
| O=C1c2ccccc2C(=O)N1CCCn1c(=O)oc2ccccc21 | inconclusive: 13 µM [activator, partial curve, poor fit] |  |
| COc1ccccc1Nc1nc(-c2ccccc2)nc2ccccc12 |  | inactive: -33.2% |
| COCCCNC(=O)c1ccc(Cn2c(SCc3ccc(F)cc3)nc3cccnc32)cc1 | inconclusive: 32.6 µM [activator, single point] |  |
| CC(C)Cc1nc(Nc2ccccc2C#N)c2nnn(Cc3ccccc3)c2n1 | inconclusive: 29.1 µM [falling, single point] |  |
| Cc1ccc(S(=O)(=O)Nc2ccc3c(c2)C(=O)N([C@H](C)CO)C[C@H](C)[C@@H](CN(C)Cc2ccc(-c4ccccc4)cc2)O3)cc1 | inconclusive: 29.1 µM [falling, single point] |  |
| O=C(c1cc(COc2cccc(C(F)(F)F)c2)on1)N1CCC(c2ccccc2)CC1 | active: 13 µM |  |
| CC(=O)Nc1ccc(-c2cc(-c3ccccc3)nc(-c3ccccc3)n2)cc1 | inconclusive: 16.4 µM [falling, partial curve, poor fit] |  |

| Structure (SMILES) | Potency | activity change, negative = inhibition |
| --- | --- | --- |
| C=CCn1cc([N+](=O)[O-])nc1C |  | inactive: -1.86% |
| COc1ccc(NC2CCCN(C(=O)c3ccc4nc(C)c(C)nc4c3)C2)cc1OC (configuration not stated) | inconclusive: 6.51 µM [falling, single point] |  |
| COc1cc2nc3occc3c(OC)c2cc1OC | inconclusive: 9.2 µM [falling, partial curve] |  |
| Nc1cc(N)nc(SCC(=O)N2CCc3ccccc32)n1 | inconclusive: 20.6 µM [activator, single point] |  |
| Cc1ccccc1-c1nc2ccccc2[nH]1 | inconclusive: 2.06 µM [activator, full curve] |  |
| CSCCC(NS(=O)(=O)c1cccc(C(F)(F)F)c1)C(=O)N(C)CCOc1ccc(Cl)cc1 (configuration not stated) | inconclusive: 18.4 µM [falling, single point] |  |
| Cc1cc(C)c2nc(N3CCC(C(=O)NCc4cccnc4)CC3)sc2c1 | inconclusive: 29.1 µM [falling, single point] |  |
| COc1ccc(C2c3[nH]c4ccccc4c3CCN2Cc2ccoc2)c(F)c1 (configuration not stated) | inconclusive: 16.4 µM [activator, single point] |  |
| CCCOc1ccc(-c2nonc2NC(=O)c2ccco2)cc1OCCC | inconclusive: 23.1 µM [falling, single point] |  |
| CCn1c(CNC(=O)COc2ccc(C(C)C)cc2)nnc1SCC(=O)Nc1cc(F)ccc1C | inconclusive: 14.6 µM [falling, single point] |  |
| CC1CCN(C(=O)c2cc3c(=O)n(C)c4cc(Cl)ccc4c3s2)CC1 | inconclusive: 32.6 µM [activator, single point] |  |
| Cc1ccccc1N1C(=O)c2cccc3c(N(C)CCO)ccc(c23)C1=O | inconclusive: 29.1 µM [falling, single point] |  |
| CCc1ccc(NC(=O)Nc2ccncc2)cc1 | inconclusive: 29.1 µM [activator, single point] |  |
| O=S(=O)(Oc1ccc(C(=S)N2CCOCC2)cc1)c1ccc(Cl)cc1 | inconclusive: 23.1 µM [falling, single point] |  |
| COc1ccc(-c2nnc(Sc3nc4ccccc4o3)c3ccccc23)cc1 | inconclusive: 29.1 µM [falling, single point] |  |
| Cc1ccc(-n2nc3c(c2NC(=O)c2ccc(Br)o2)CSC3)c(C)c1 |  | inactive: -11.8% |
| Cc1ccc(S(=O)(=O)c2nnn3c2nc(NC2CCCCCC2)c2sccc23)cc1C | inconclusive: 29.1 µM [falling, single point] |  |
| Cc1cc2c(=O)n(C)c(SCC(=O)Nc3cccc(O)c3)nc2s1 |  | inactive: 8.07% |
| O=C(NNC(=O)c1cccnc1)c1ccncc1 | inconclusive: 4.61 µM [falling, partial curve, poor fit] |  |
| CCCCNC(=O)/C(C#N)=C/c1cccnc1 | inconclusive: 18.4 µM [falling, single point] |  |
| N=c1c(C(=O)NC2CCCC2)cc2c(=O)n3ccccc3nc2n1CCN1CCOCC1 | inconclusive: 8.2 µM [activator, partial curve] |  |

Full records from above.
Cc1ccccc1-c1nc2ccccc2[nH]1 is listed as Potency: inconclusive: 2.06 µM [activator, full curve]
CCCCC(=O)Nc1cc2nn(-c3ccc(OC)cc3)nc2cc1C is listed as Potency: inconclusive: 5.8 µM [activator, partial curve]
